Measured values: patent publication US11690378B2, “Substituted pyridines as noxious arthropod control agents” (SUMITOMO CHEMICAL COMPANY, LIMITED, priority 2017, dated 2023)
Some results were stated once for a whole list of compounds, not compound by compound. At least one structure is not confirmed: it was looked up by name or label, or the drawing left a doubt.

Tests used:
[1] = tested on: cotton aphids (Aphis gossypii); test: Test method 1: foliar spray on cucumber seedling infested with cotton aphids, controlling value; format: in vivo; settings: spray 10 mL/seedling, examined after 5 days, 25° C.
[2] = tested on: cotton aphids (Aphis gossypii); test: Test method 2: soil drench at foot of cucumber seedling, cotton aphids released after 7 days, controlling value; format: in vivo; settings: 1000 ppm, drench 5 mL/seedling, examined after 6 days, 25° C.

## CCS(=O)(=O)c1cccnc1-n1nc2ccc(C(F)(F)F)cn2c1=O [compound 1]
[1]; 200 ppm
  controlling value: ≥ 90%
[1]; 500 ppm
  controlling value: ≥ 90%

## CCS(=O)(=O)c1cccnc1-n1nc2cc(C(F)(F)F)ccn2c1=O [compound 2]
[1]; 500 ppm
  controlling value: ≥ 90%

## CCS(=O)(=O)c1cc(C2CC2)cnc1-n1nc2cc(C(F)(F)F)ccn2c1=O [compound 3]
[1]; 200 ppm
  controlling value: ≥ 90%
[1]; 500 ppm
  controlling value: ≥ 90%
[2]
  controlling value: ≥ 90%

## CCS(=O)(=O)c1cc(C2CC2)cnc1-n1nc2ccc(C(F)(F)F)cn2c1=O [compound 4]
[1]; 200 ppm
  controlling value: ≥ 90%
[1]; 500 ppm
  controlling value: ≥ 90%
[2]
  controlling value: ≥ 90%

## CCS(=O)(=O)c1cc(C(F)(F)F)cnc1-n1nc2ccc(C(F)(F)F)cn2c1=O [compound 6]
[1]; 500 ppm
  controlling value: ≥ 90%
[2]
  controlling value: ≥ 90%

## CCS(=O)(=O)c1cc(C2CC2)cnc1-n1cc2ccc(C(F)(F)F)cn2c1=O [compound 7]
[1]; 500 ppm
  controlling value: ≥ 90%

## CCS(=O)(=O)c1cccnc1-n1cc2ccc(C(F)(F)F)cn2c1=O [compound 8]
[1]; 500 ppm
  controlling value: ≥ 90%

## CCS(=O)(=O)c1cc(Br)cnc1-n1cc2ccc(C(F)(F)F)cn2c1=O [compound 9]
[1]; 500 ppm
  controlling value: ≥ 90%

## CCS(=O)(=O)c1cc(-c2ccc(F)cc2)cnc1-n1cc2ccc(C(F)(F)F)cn2c1=O [compound 11]
[1]; 200 ppm
  controlling value: ≥ 90%
[1]; 500 ppm
  controlling value: ≥ 90%

## CCS(=O)(=O)c1cc(-c2ccc(C#N)cc2)cnc1-n1cc2ccc(C(F)(F)F)cn2c1=O [compound 12]
[1]; 500 ppm
  controlling value: ≥ 90%

## CCS(=O)(=O)c1cccnc1-n1nc2cnc(C(F)(F)F)cn2c1=O [compound 13]
[1]; 200 ppm
  controlling value: ≥ 90%
[1]; 500 ppm
  controlling value: ≥ 90%
[2]
  controlling value: ≥ 90%

## CCS(=O)(=O)c1cc(Br)cnc1-n1nc2cnc(C(F)(F)F)cn2c1=O [compound 14]
[1]; 200 ppm
  controlling value: ≥ 90%
[1]; 500 ppm
  controlling value: ≥ 90%

## CCS(=O)(=O)c1cc(C2CC2)cnc1-n1nc2cnc(C(F)(F)F)cn2c1=O [compound 15]
[1]; 200 ppm
  controlling value: ≥ 90%
[1]; 500 ppm
  controlling value: ≥ 90%
[2]
  controlling value: ≥ 90%

## CCS(=O)(=O)c1cc(C(F)(F)F)cnc1-n1nc2cnc(C(F)(F)F)cn2c1=O [compound 16]
[1]; 200 ppm
  controlling value: ≥ 90%
[1]; 500 ppm
  controlling value: ≥ 90%

## CCS(=O)(=O)c1cc(C2CC2)cnc1-n1c(=O)c2cc(C(F)(F)F)cnc2n1C [compound 17]
[1]; 200 ppm
  controlling value: ≥ 90%
[1]; 500 ppm
  controlling value: ≥ 90%
[2]
  controlling value: ≥ 90%

## CCS(=O)(=O)c1cc(-c2ccc(F)cc2)cnc1-n1nc2cnc(C(F)(F)F)cn2c1=O [compound 19]
[1]; 500 ppm
  controlling value: ≥ 90%

## CCS(=O)(=O)c1cc(C)cnc1-n1nc2cnc(C(F)(F)F)cn2c1=O [compound 21]
[1]; 200 ppm
  controlling value: ≥ 90%
[1]; 500 ppm
  controlling value: ≥ 90%

## CCS(=O)(=O)c1cc(-c2ccc(F)nc2)cnc1-n1nc2cnc(C(F)(F)F)cn2c1=O [compound 22]
[1]; 500 ppm
  controlling value: ≥ 90%

## CCS(=O)(=O)c1cc(-c2ccc(C#N)cc2)cnc1-n1nc2cnc(C(F)(F)F)cn2c1=O [compound 23]
[1]; 500 ppm
  controlling value: ≥ 90%

## CCS(=O)(=O)c1cc(C2CC2)cnc1-n1[nH]c2ncc(C(F)(F)F)cc2c1=O [compound 24]
[1]; 200 ppm
  controlling value: ≥ 90%
[1]; 500 ppm
  controlling value: ≥ 90%

## CCS(=O)(=O)c1cc(N(C)C(=O)OC(C)(C)C)cnc1-n1nc2cnc(C(F)(F)F)cn2c1=O [compound 25]
[1]; 500 ppm
  controlling value: ≥ 90%
